Reference: PMC7821251

Chains of the proteins cited; added tags and fusions are not shown. Lines headed by an entry give the natural chain unless they say otherwise; changes in a name come on top.
UniProt Q5Z7R9: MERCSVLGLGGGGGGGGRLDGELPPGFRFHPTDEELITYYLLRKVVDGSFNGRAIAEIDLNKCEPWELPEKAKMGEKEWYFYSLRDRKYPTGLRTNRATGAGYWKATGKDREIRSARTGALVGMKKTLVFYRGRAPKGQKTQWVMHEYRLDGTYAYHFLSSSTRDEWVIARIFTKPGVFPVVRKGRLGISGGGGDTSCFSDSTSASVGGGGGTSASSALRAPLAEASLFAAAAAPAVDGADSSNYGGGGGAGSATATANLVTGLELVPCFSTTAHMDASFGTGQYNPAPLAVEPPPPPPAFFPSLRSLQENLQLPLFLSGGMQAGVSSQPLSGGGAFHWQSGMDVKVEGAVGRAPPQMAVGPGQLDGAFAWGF
UniProt A0A0P0XHX1: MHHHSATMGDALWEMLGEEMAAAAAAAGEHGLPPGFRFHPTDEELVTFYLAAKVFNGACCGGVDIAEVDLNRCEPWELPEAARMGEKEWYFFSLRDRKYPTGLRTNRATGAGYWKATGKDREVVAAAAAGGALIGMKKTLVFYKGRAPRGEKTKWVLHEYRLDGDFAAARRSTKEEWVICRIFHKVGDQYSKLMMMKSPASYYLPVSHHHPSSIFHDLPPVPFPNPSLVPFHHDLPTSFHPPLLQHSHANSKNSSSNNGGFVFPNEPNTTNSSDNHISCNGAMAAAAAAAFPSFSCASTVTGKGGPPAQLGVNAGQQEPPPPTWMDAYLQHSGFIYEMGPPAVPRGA

Biological target: OsCUC1 (BiFC fusion) (rice (Oryza sativa)) (UniProt Q5Z7R9)
Assay: split reporter; BiFC of rice proteins; p35S-Vn and p35S-Vc fusions co-expressed in rice protoplasts; confocal microscopy

binding: binds
Substance: OsCUC3 (BiFC fusion) (from UniProt A0A0P0XHX1)

These are yes or no findings as the source states them, for the method shown. Binding seen in cells or lysates may run through a third protein. A result given as binding can be weak or reduced; the word gives no strength.
